Laboratory results taken from PMC5371832.
These are yes or no findings as the source states them, for the method shown. Some binding calls cover weakened binding; strength is not graded here.

Amino acid sequences for entries named in this document (tags omitted).
UniProt P0A9A6: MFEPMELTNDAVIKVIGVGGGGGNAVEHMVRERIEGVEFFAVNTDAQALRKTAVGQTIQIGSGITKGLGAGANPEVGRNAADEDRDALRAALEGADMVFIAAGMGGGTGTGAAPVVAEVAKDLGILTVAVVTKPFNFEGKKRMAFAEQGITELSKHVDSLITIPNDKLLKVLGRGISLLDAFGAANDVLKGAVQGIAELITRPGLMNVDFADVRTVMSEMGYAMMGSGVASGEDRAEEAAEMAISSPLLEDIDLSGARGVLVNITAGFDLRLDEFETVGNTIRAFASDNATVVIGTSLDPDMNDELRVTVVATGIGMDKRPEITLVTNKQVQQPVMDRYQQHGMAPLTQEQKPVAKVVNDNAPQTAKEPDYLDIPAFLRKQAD

B1: Type IV toxin CbtA (protein, UniProt P64524 1-124)
chain: MKTLPVLPGQAASSRPSPVEIWQILLSRLLDQHYGLTLNDTPFADERVIEQHIEAGISLCDAVNFLVEKYALVRTDQPGFSACTRSQLINSIDILRARRATGLMTRDNYRTVNNITLGKYPEAK
B2: toxin YkfI (protein, UniProt P77692 1-113)
chain: MKTLPAITQRAVKPCLSPVAVWQMLLTRLLEQHYGLTINDTPFCNEAVIKEHIDAGITLADAVNFLVEKYELVRIDRKGFSWQEQSPYLRAADILRARQATGLLRQSRNNVVR
B3: toxin YpjF (protein, UniProt Q46953 1-109)
chain: MNTLPATISQAAKPCLSPVAVWQMLLTRLLEQHYGLTLNDTPFSDETVIKEHIDAGITLADAVNFLVEKYELVRIDHRGFSWQQQSPYISVVDILRARRSTGLLKTNVK

The binders below were run against cell division protein FtsZ (E. coli K-12) (UniProt P0A9A6) (assay: two-hybrid).
For B1, the binding was “binds”.
B2 was tested, and the binding was “binds”.
B3 was tested, and the binding was “binds”.
